Among the data in publication doi:10.1101/2021.08.17.452482 are binding values, retold here.

Protein sequences, listed by entry. Tags and fused reporters are not part of them.
UniProt P24385: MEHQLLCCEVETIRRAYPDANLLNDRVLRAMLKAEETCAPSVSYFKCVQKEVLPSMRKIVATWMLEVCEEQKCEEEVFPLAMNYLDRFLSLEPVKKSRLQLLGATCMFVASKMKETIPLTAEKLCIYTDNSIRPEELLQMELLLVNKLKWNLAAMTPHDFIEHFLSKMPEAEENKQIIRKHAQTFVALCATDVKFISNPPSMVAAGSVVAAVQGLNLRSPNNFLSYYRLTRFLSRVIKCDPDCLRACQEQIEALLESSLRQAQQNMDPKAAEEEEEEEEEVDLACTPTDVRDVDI
UniProt P38936: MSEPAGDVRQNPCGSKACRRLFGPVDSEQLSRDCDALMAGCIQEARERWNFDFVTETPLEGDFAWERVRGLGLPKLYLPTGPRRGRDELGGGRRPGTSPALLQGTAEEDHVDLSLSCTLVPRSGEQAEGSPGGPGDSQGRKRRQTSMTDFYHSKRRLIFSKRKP
UniProt P46527: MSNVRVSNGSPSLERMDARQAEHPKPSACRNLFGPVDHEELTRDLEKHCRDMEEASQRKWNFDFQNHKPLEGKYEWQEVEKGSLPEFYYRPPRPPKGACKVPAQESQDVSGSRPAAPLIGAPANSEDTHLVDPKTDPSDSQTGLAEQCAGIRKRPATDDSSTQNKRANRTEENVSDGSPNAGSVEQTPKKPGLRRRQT

Where two headings read alike, the source gives them in different places. Results are given in words; binding and its absence hold for the method and conditions named. Binding seen in cells or lysates may run through a third protein. Some results given as binding are weak or reduced against the parent protein; the word gives no strength.

Assay in all cases: co-IP
Assay [1] addresses Cyclin D1 (human (endogenous in HDF, U2OS, HCT-116)) (UniProt P24385).
Assay [2] shares this target. The source holds these as a separate data set.
Assay [3] shares this target. The source holds these as a separate data set.
Assay [4] addresses CDK inhibitor p21^Waf1/Cip1 (human (endogenous in HDF, U2OS, HCT-116)) (UniProt P38936).

With “CDK inhibitor p21^Waf1/Cip1 (from UniProt P38936 1-164)”, the binding result in assay [1], in assay [2] and in assay [3] was “binds” each time.
With “CDK inhibitor p27^Kip1 (from UniProt P46527 1-198)”, the binding result in assay [1] is reported as “binds”.
Consider Cyclin D1 (from UniProt P24385 1-295), for which the binding result in assay [4] is listed as “binds”.
